Results deposited as PubChem BioAssay AID743456 (Peter MacCallum Cancer Centre, 2014)
In all, the deposit lists 878 reagents; below is a part drawn at random. 27 of all reagents (3.1%) count as active. 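27 mimics are marked active, unlike an earlier stated count of 24; the viability threshold is described inconsistently.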 Further read-outs or replicates are left out here. Reagent sequences are not shown. The record does not give: the amount of reagent.

Test: 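Mimic library tested for viability and apoptosis changes under vorinostat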 (primary screen)
System: human HCT116-VR colon cancer cells, a vorinostat-resistant HCT116 line
Reagent: miRNA mimic
Timing: about 3 days from transfection to readout; drug present for the last 24 h
Treatment: vorinostat at 2.5 µM final for 24 h
Measured: 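Cell viability from CellTiter-Fluor signal and caspase activity from luminescence after 24 h vorinostat at 2.5 µM, given as robust z-scores and as ratios to mock-transfected wells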
Scale: viability robust z-score: higher = more viable cells; caspase robust z-score: higher = more caspase activity, more apoptosis
Active means: 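Active when viability drops or caspase activity climbs beyond robust z thresholds, with wells of poor cell health excluded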

microRNA,viability robust z-score,caspase robust z-score,viability hit class,caspase hit class,call
hsa-miR-216b,1.18,-0.24,no change,no change,inactive
hsa-miR-132*,0.2,1.21,no change,no change,inactive
hsa-miR-378*,-0.82,-0.57,no change,no change,inactive
hsa-miR-377*,-0.9,0.14,no change,no change,inactive
hsa-miR-1183,0.24,-0.52,no change,no change,inactive
hsa-miR-604,-1.77,0.52,no change,no change,inactive
hsa-miR-10a,-0.45,-1.04,no change,no change,inactive
hsa-miR-141*,-1.38,-0.76,no change,no change,inactive
hsa-miR-767-5p,0.16,-0.82,no change,no change,inactive
hsa-miR-30b,1.08,-0.2,no change,no change,inactive
hsa-miR-557,0.08,2.03,no change,no change,inactive
hsa-miR-22,-0.07,0.65,no change,no change,inactive
hsa-miR-106a*,0.1,-0.69,no change,no change,inactive
hsa-miR-1200,-0.03,-1.09,no change,no change,inactive
hsa-miR-1297,0.55,-0.92,no change,no change,inactive
hsa-miR-376a,-0.82,-0.82,no change,no change,inactive
hsa-miR-139-5p,0.52,-0.5,no change,no change,inactive
hsa-miR-621,0.04,0.68,no change,no change,inactive
hsa-miR-302e,0.55,1.5,no change,no change,inactive
hsa-miR-188-3p,-0.92,-0.42,no change,no change,inactive
hsa-miR-1227,-1.34,5.32,no change,caspase activation,active
hsa-miR-634,-3.87,2.67,reduced viability,no change,active
hsa-miR-1251,0.78,1.7,no change,no change,inactive
hsa-miR-23b,-0.31,-1,no change,no change,inactive
hsa-miR-1205,-1.87,0.56,no change,no change,inactive
hsa-miR-122*,0.9,-0.54,no change,no change,inactive
hsa-miR-217,-0.75,5.56,no change,caspase activation,active
hsa-miR-409-3p,-1.19,-0.35,no change,no change,inactive
hsa-miR-500,-0.21,-0.62,no change,no change,inactive
hsa-miR-629*,-1.76,-1.29,no change,no change,inactive
hsa-miR-155,0.28,0.69,no change,no change,inactive
hsa-miR-431*,0.02,1.5,no change,no change,inactive
hsa-miR-337-5p,-0.11,0.29,no change,no change,inactive
hsa-miR-888*,-1.8,3.4,no change,no change,inactive
hsa-miR-33b*,-0.32,1.29,no change,no change,inactive
hsa-miR-518d-3p,0.4,-0.1,no change,no change,inactive
hsa-miR-671-3p,-3.45,-0.82,reduced viability,no change,active
hsa-miR-199a-3p,-0.92,0.6,no change,no change,inactive
hsa-miR-1287,-1.02,3.48,no change,no change,inactive
hsa-let-7g,0.32,-0.3,no change,no change,inactive
hsa-miR-525-5p,-0.75,-0.88,no change,no change,inactive
hsa-miR-299-3p,-0.42,0.8,no change,no change,inactive
hsa-miR-330-5p,-1.86,2.14,no change,no change,inactive
hsa-miR-941,0.34,-0.62,no change,no change,inactive
hsa-miR-589*,0.32,0.7,no change,no change,inactive
hsa-miR-593,-1.69,1.86,no change,no change,inactive
hsa-miR-1978,0.55,-0.34,no change,no change,inactive
hsa-miR-151-3p,0.1,-0.24,no change,no change,inactive
hsa-miR-765,-2.43,0.66,no change,no change,inactive
hsa-miR-342-5p,-3.13,2.64,reduced viability,no change,active
hsa-miR-451,0.42,-0.86,no change,no change,inactive
hsa-miR-1909,-0.61,1.46,no change,no change,inactive
hsa-miR-1295,0.66,0.13,no change,no change,inactive
hsa-miR-631,-3.24,2,reduced viability,no change,active
hsa-miR-124*,-0.92,-0.07,no change,no change,inactive
hsa-miR-136*,-0.26,0.73,no change,no change,inactive
hsa-miR-576-3p,0.98,0.16,no change,no change,inactive
hsa-miR-194*,-0.04,-0.25,no change,no change,inactive
hsa-miR-409-5p,0.33,4.42,no change,no change,inactive
hsa-miR-612,0.09,-0.47,no change,no change,inactive
hsa-miR-582-5p,-1.07,-0.26,no change,no change,inactive
hsa-miR-142-5p,0.8,-0.57,no change,no change,inactive
hsa-miR-1282,0.81,-0.56,no change,no change,inactive

As entered above:
hsa-miR-612, call → inactive
hsa-miR-1287, caspase hit class → no change
Under “viability hit class”, hsa-miR-1297 reads no change
Entry of hsa-miR-888* in “viability robust z-score”: -1.8
hsa-let-7g, caspase hit class = no change
hsa-miR-23b, viability hit class = no change
